This is an account of results in PubChem BioAssay AID2685 (National Center for Advancing Translational Sciences (NCATS), 2010).

The nature of this experiment: qHTS Assay for Lipid Storage Modulators in Drosophila S3 Cells.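 On cell number change: cells counted by Cell Tracker Red CMTPX staining in the red channel.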 The conditions noted are these: BODIPY lipid droplet fluorescence, 18-24 h; for cell number change: measured here: cell count max response, cells fed with added oleic acid. In outline: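 Laser-scanning cytometry quantifies lipid droplet accumulation (500–530 nm total intensity; droplet/cell object ratio) in oleic acid-fed (400 uM added) Drosophila S3 cells treated with a concentration series. 20 uM Triacsin C defined 100% inhibition.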

[1] abbreviates: measured here: lipid fluorescence (Fed channel) AC50, cells fed with added oleic acid.
Where [2] appears, read: measured here: cell number channel AC50, cells fed with added oleic acid.

SMILES strings stand for the structures. This is one part of the list. Shown are side measurements of this screen, not its main read-out; they come without a call. The list favours compounds with an active or inconclusive main result. The note in brackets gives the kind of curve behind each potency; many fits are weak.

A word on the AC50: it is the concentration giving half of the maximal activity seen. Low values mean activity at low concentration, high ones activity only at high concentration. In the case of `COc1ccc(/C=N/NC(=O)c2ccoc2C)cc1OC`, the cell number change stood at 23.6%. Moreover, the concentration at half-maximal activity (AC50) under setting [1] was 16.4 µM [rising, partial curve].

For the molecule `CC(C)CC(=O)O/N=C1\C(=O)N(Cc2ccc(Cl)cc2)c2ccc([N+](=O)[O-])cc21`, the cell number change is -69.5%. In addition, the AC50 under setting [2] was 20.6 µM [falling, single point]. Besides, under setting [1], the AC50 is 23.1 µM [falling, single point].

Regarding `CC(C(=O)NCC1CCCO1)c1ccc([N+](=O)[O-])cc1` (centres undefined), the cell number change was -41.4%.

`COc1cc(S(=O)(=O)N2CCCCC2)ccc1NC(=O)Cc1ccccc1`: the cell number change was determined as 42.4%. Also, the half-maximal activity concentration (AC50) under setting [2] is 0.206 µM [rising, full curve]. In addition, the AC50 under setting [1] was 1.64 µM [rising, partial curve].

Turning to `Cc1ccn2c(CNCc3cnn(C)c3)c(C(=O)N3CCCCCC3)nc2c1`, the cell number change was 6.23%. In addition, the AC50 under setting [1] was 29.1 µM [falling, single point].

In the case of `O=C(COC(=O)c1nc(Cl)ccc1Cl)Nc1ccc(Cl)cn1`, the cell number change was determined as 6.98%. Further, the AC50 under setting [2] is 6.51 µM [falling, single point]. Moreover, under setting [1], the half-maximal activity concentration (AC50) is 6.51 µM [falling, single point].

For the molecule `COc1ccc(OCC#CCN2CC(C)OC(C)C2)cc1` (centres undefined), the cell number change came out at 4.07%. Besides, under setting [1], the concentration at half-maximal activity (AC50) is 0.116 µM [falling, full curve, poor fit].

Consider `COc1ccc(-c2nn(C)c3sc(C(=O)N4CCOCC4)cc23)cc1OC`, for which the cell number change amounted to 12.8%. The half-maximal activity concentration (AC50) under setting [2] was 0.0058 µM [rising, full curve, poor fit]. Besides, the AC50 under setting [1] is 0.92 µM [rising, partial curve, poor fit].

In the case of `O=C(OCc1ccccc1)Oc1cncc(C(=O)O)c1`, the cell number change is -5.01%. Further, the concentration at half-maximal activity (AC50) under setting [1] was 0.0291 µM [falling, full curve, poor fit].

Take `COc1ccc(OCC(=O)Nc2cccc(NC(=O)COc3ccc(OC)cc3)n2)cc1`: the cell number change is -17.3%. Besides, the concentration at half-maximal activity (AC50) under setting [1] is 5.8 µM [rising, partial curve].

`O=C(CSc1nnnn1-c1ccccc1)Nc1ncc(Cc2cccc(Cl)c2Cl)s1`: the cell number change was found to be 6.91%. In addition, under setting [1], the half-maximal activity concentration (AC50) was 8.2 µM [rising, partial curve].

Turning to `O=[N+]([O-])c1ccc(S(=O)(=O)Nc2cccc(-c3ccc(N4CCOCC4)nn3)c2)cc1`, the cell number change worked out at 40.9%. For the same molecule, the AC50 under setting [2] was 9.2 µM [rising, partial curve, poor fit]. Also, under setting [1], the concentration at half-maximal activity (AC50) was 0.82 µM [rising, partial curve].

Regarding `O=C(Nc1ccc2ncccc2c1)c1ccccc1`, the cell number change is 15.8%.

For the molecule `COc1ccccc1NC(=O)CSc1nnc(C)n1Cc1ccccc1`, the cell number change is -5.16%. The half-maximal activity concentration (AC50) under setting [1] is 0.82 µM [rising, full curve].

For the molecule `COCCNC(=O)C(c1ccc(OC)cc1)N(CCOC)C(=O)CCC(=O)Nc1nccs1` (centres undefined), the cell number change stood at 18%. The AC50 under setting [1] was 29.1 µM [rising, single point].

For `Cc1cc(C)cc(NS(=O)(=O)c2cc(Br)cnc2N)c1`, the cell number change is -61.1%. Further, under setting [2], the AC50 is 16.4 µM [falling, single point].

As for `COc1ccc(/C=C(\NC(=O)c2ccccc2)C(=O)NCCC(=O)O)cc1`, the cell number change was -45.5%. Further, the concentration at half-maximal activity (AC50) under setting [2] was 14.6 µM [falling, partial curve]. The concentration at half-maximal activity (AC50) under setting [1] is 1.84 µM [falling, partial curve].

As for `Nc1nonc1-n1nnc(C(=O)N/N=C/c2ccncc2)c1CSc1ccc(Cl)cc1`, the AC50 under setting [1] is 18.4 µM [falling, single point].

As to `CC1CC(c2ccccc2)n2nc(N3C(=O)c4ccccc4C3=O)nc2N1` (centres undefined), the cell number change is -28.7%. In addition, under setting [2], the AC50 is 1.3 µM [falling, full curve, poor fit]. For the same molecule, the concentration at half-maximal activity (AC50) under setting [1] is 2.91 µM [falling, full curve].

For the molecule `O=C(CCc1ccccc1)NCC(=O)N/N=C/c1ccc2c(c1)OCO2`, the cell number change stood at 30.1%. The AC50 under setting [2] is 0.116 µM [rising, partial curve]. Besides, under setting [1], the AC50 was 9.2 µM [rising, partial curve].

On to `CCOC(=O)C1CCN(c2cc3c(cc2NC(=O)c2ccccc2Br)n(C)c(=O)n3C)CC1`, for which, under setting [1], the concentration at half-maximal activity (AC50) is 29.1 µM [falling, single point].

`O=C(Nc1nc(-c2ccccc2)c(-c2ccccc2)s1)c1ccc(S(=O)(=O)N2CCCC2)cc1`: the cell number change was -13.5%. Besides, the AC50 under setting [1] was 29.1 µM [falling, single point].

For the molecule `Cc1csc2nc(CNC(=O)c3cccc(C(F)(F)F)c3)cn12`, the cell number change is 28.4%.

Turning to `CC1CCCC(NC(=O)COC(=O)c2cccc(S(=O)(=O)N3CCCCC3)c2)C1C` (centres undefined), the cell number change was 1.82%. Under setting [1], the AC50 is 0.00517 µM [rising, full curve, poor fit].

For `COc1ccc(Cl)cc1-c1nc(-c2ccc(Br)o2)no1`, the cell number change is -23.1%.

For `CCCc1cc(=O)oc2cc(C)cc(OCC(=O)Nc3ccc(CN4CCOCC4)cc3)c12`, the cell number change was -0.943%. The concentration at half-maximal activity (AC50) under setting [1] is 29.1 µM [falling, single point].

In the case of `O=C(NCc1ccccc1)Nc1cccn(Cc2cccc(F)c2)c1=O`, the cell number change was determined as 5.26%. Moreover, the AC50 under setting [1] was 0.164 µM [rising, full curve, poor fit].

For `CC1CCN(S(=O)(=O)c2ccc(C(=O)N3CCCCC3C(=O)O)cc2)CC1` (centres undefined), the cell number change was -33.8%. Besides, the AC50 under setting [2] is 25.9 µM [falling, single point]. Also, under setting [1], the half-maximal activity concentration (AC50) is 25.9 µM [falling, single point].

Turning to `Cc1ccc2cccc(NC(=O)c3ccc(Br)o3)c2n1`, the cell number change was -17.4%. In addition, the AC50 under setting [1] is 2.31 µM [rising, partial curve].

For `CCOc1ccc(CC(=O)N2N=C(C)CC2(O)C(F)(F)F)cc1` (centres undefined), the cell number change stood at 20.1%. Further, the concentration at half-maximal activity (AC50) under setting [1] was 1.46 µM [rising, partial curve, poor fit].

Turning to `Cc1nc2ccc(Nc3nc4cc(S(=O)(=O)N5CCOCC5)ccc4o3)cc2s1`, the cell number change came out at 69.7%. Further, under setting [2], the half-maximal activity concentration (AC50) was 2.31 µM [rising, partial curve, poor fit]. Also, the AC50 under setting [1] is 1.3 µM [rising, full curve].

`CN(C)S(=O)(=O)c1cccc(NC(=O)c2ccc3nccnc3c2)c1`: the cell number change came out at 9.59%. Further, the AC50 under setting [1] is 4.11 µM [rising, single point].

In the case of `CCCCOc1ccc(-c2ncc(Cl)cn2)cc1`, the cell number change was -32.1%. The AC50 under setting [2] is 2.91 µM [falling, partial curve]. Moreover, under setting [1], the AC50 was 6.51 µM [rising, single point].

Turning to `Cc1ccn2cc(CNS(=O)(=O)c3cccs3)nc2c1`, the cell number change amounted to 12.5%. Further, the AC50 under setting [1] is 32.6 µM [rising, single point].

Take `COc1ccc(-c2cn3cccnc3n2)cc1`: the cell number change amounted to 12.1%. Further, the concentration at half-maximal activity (AC50) under setting [2] is 0.411 µM [falling, full curve, poor fit].

As to `Cc1[nH]n(-c2ccccc2)c(=O)c1C(=O)Nc1ccccc1`, the cell number change is -2.25%. The concentration at half-maximal activity (AC50) under setting [1] was 0.82 µM [rising, full curve].

As to `CC(=O)NC(=C(Cl)Cl)S(=O)(=O)c1ccccc1`, the cell number change was -19.1%.

As to `Nn1c(C2CCCCC2)nc2ccccc2c1=O`, the cell number change was -17.5%.

As for `Cc1c(NC(=O)c2ccccc2N)cccc1C(=O)O`, the cell number change was determined as 1.61%. In addition, the AC50 under setting [1] was 0.00517 µM [falling, full curve, poor fit].

As to `CC(=O)C(Cc1ccc(Cl)nc1)(Cc1ccc(Cl)nc1)C(C)=O`, the cell number change was -24.9%. Under setting [2], the concentration at half-maximal activity (AC50) was 0.82 µM [falling, single point]. The half-maximal activity concentration (AC50) under setting [1] was 0.92 µM [falling, full curve].

Consider `CSCC[C@H](NC(=O)[C@H](Cc1ccccc1)n1c(=O)[nH]c2ccccc2c1=O)C(=O)N1CCC[C@H]1C(=O)O`, for which the cell number change amounted to 32.4%. Moreover, the AC50 under setting [2] is 0.116 µM [rising, full curve, poor fit].

Consider `COc1ccc(CCNC(=O)COc2ccc(-c3ccccc3)cc2)cc1OC`, for which the cell number change was -30.6%. The AC50 under setting [2] was 13 µM [falling, single point]. For the same molecule, the half-maximal activity concentration (AC50) under setting [1] is 13 µM [falling, partial curve].

Take `CC(CNC(=O)CN1C(=O)CCSc2ccccc21)c1ccccc1` (centres undefined): under setting [1], the AC50 is 6.51 µM [rising, single point].

Consider `C=CCOc1ccccc1/C=N/O`, for which the cell number change was determined as 19.9%. The AC50 under setting [1] is 0.00461 µM [falling, full curve, poor fit].

As for `COc1ccc(NC(=O)COC(=O)CO/N=C(\C)c2ccc3c(c2)OCO3)cc1S(N)(=O)=O`, the cell number change is -4.23%. The half-maximal activity concentration (AC50) under setting [1] is 32.6 µM [rising, single point].

For the molecule `C=CCn1c(SCc2ccc(C(=O)Nc3ccccc3)cc2)nnc1-c1ccccc1`, the cell number change was -5.44%. Moreover, the AC50 under setting [1] was 2.91 µM [falling, full curve, poor fit].

Consider `CC(C)(C)OC(=O)N[C@H](/C=C/c1ccccc1)C(=O)OC(C)(C)C`, for which the cell number change was -11.1%.

With `Cc1nnc(SCC(=O)Nc2cccc(S(N)(=O)=O)c2)n1-c1ccccc1`, the cell number change worked out at 10.3%. Besides, the AC50 under setting [2] was 0.00517 µM [rising, full curve, poor fit].

For `CC(C)C[C@H](NC(=O)OC(C)(C)C)c1nnc(SCc2ccccc2)o1`, the cell number change was 21.2%. Besides, under setting [1], the AC50 was 29.1 µM [rising, single point].

As to `Cc1cccc(C(=O)NC(=S)Nc2ccc(S(=O)(=O)N3CCCCC3)cc2)c1`, the cell number change was -27.2%. Further, the AC50 under setting [1] is 0.58 µM [rising, single point].

With `CCCCN=C(NNc1ccc(Br)cc1)C(=O)OCC`, the cell number change is -27.9%. Besides, the AC50 under setting [1] was 14.6 µM [falling, single point].

For the molecule `O=C(Nc1cc(S(=O)(=O)N2CCOCC2)ccc1N1CCOCC1)c1cc2c(s1)CCC2`, the cell number change is -9.93%.

On to `CCCC1CC(C)(C(=O)CSc2n[nH]c(-c3ccccc3)n2)OC1=O` (centres undefined), for which the cell number change stood at 33%. Also, the AC50 under setting [2] is 13 µM [rising, partial curve].

For `COc1ccc(COC(=O)C2CCN(S(=O)(=O)c3ccc(Cl)cc3)CC2)cc1`, the cell number change came to 14.1%.

Regarding `Cn1c(=O)c(C(=O)NC2CCCCCCC2)c(O)c2ccccc21`, the AC50 under setting [1] was 0.092 µM [rising, full curve, poor fit].

`O=C(c1ccc(Cl)cc1)c1ccc(OCC(O)CN2CCOCC2)cc1` (centres undefined): the cell number change was -13.8%.

As for `O=C(COC(=O)CCc1c[nH]c2ccccc12)NCc1ccccc1`, the cell number change is -3.41%. Moreover, the AC50 under setting [1] is 0.366 µM [falling, full curve].

As to `CC(C)CCN1CC(C(=O)NCc2ccccc2)CC1=O` (centres undefined), the cell number change was -106%. The AC50 under setting [1] was 29.1 µM [falling, single point].

With `COc1ccc(C2=NS(=O)(=O)N(C)C(C(=O)NC3CCCCC3)=C2)cc1`, the cell number change is 3.75%.

With `CCN(CC)S(=O)(=O)c1ccc(OC)c(NS(=O)(=O)c2ccc(F)cc2)c1`, the cell number change is -50.6%. Also, under setting [2], the half-maximal activity concentration (AC50) was 4.11 µM [falling, full curve]. Besides, the AC50 under setting [1] is 5.8 µM [falling, full curve].
